The values that follow come from article PMC12311259, “Antifibrotic effects of specific targeting of the 5‐hydroxytryptamine 2B receptor (5‐HT2BR) in murine models and ex vivo models of scleroderma skin” (Arthritis & Rheumatology (Hoboken, N.j.), 2025).

This data set deals with PCS slices of SSc skin. Nature of the data set: Precision cut skin (PCS) slices of SSc skin, ex vivo, RNASeq and immunofluorescence. It counts as cell-based, human.

Regarding `COc1c(C)c2c(c(O)c1C/C=C(\C)CCC(=O)OCCN1CCOCC1)C(=O)OC2` [MMF, mycophenolate mofetil, reference compound], where the note is “1 μM”, the “immune cell types whose related terms were modulated” value was “T cells, natural killer cells, myeloid leukocytes, and neutrophils”. With `C[C@@H]1CN(C(=N)N)N=C1c1ccc(F)cc1O` [AM1476], the “immune cell types whose related terms were modulated” value (30 μM) was “myeloid leukocytes, granulocytes, and mononuclear cells”.
